Data published in PubChem BioAssay AID504847 (National Center for Advancing Translational Sciences (NCATS), 2011).
In all, about 400,000 compounds went through this assay and about 3,700 (0.93%) were called active. Inconclusive means that the source gave no clear call. Such entries were picked first, then a sample of the others. The call rests on the fitted dose curve; in most records, active means well fitted inhibition curve with a large enough effect; inconclusive means small, poorly fitted or top-dose-only effect, or another doubt; inactive means no such curve, though single readings can be large or run the other way. Potencies beside an inconclusive call are fits to weak or partial responses and may not hold up.

The chains behind the UniProt entries cited, without tags or fusion partners. Where a name states a change or a piece, a line headed by the entry shows the natural chain unless it says otherwise.
UniProt P11473: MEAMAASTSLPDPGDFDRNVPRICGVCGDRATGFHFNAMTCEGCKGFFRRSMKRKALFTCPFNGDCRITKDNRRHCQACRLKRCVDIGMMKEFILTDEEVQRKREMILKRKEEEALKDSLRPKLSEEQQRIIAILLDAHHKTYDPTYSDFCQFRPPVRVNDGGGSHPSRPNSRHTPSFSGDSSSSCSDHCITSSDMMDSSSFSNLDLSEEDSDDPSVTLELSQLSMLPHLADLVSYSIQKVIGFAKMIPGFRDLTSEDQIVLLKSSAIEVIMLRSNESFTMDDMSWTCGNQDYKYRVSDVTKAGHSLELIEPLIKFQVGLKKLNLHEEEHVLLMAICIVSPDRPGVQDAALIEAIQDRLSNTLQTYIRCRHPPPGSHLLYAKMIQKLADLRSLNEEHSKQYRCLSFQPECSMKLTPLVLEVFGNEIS

Each compound was assayed against Vitamin D3 receptor (Homo sapiens) (UniProt P11473) (assay: Inhibitors of the vitamin D receptor (VDR): qHTS). Conditions: VDR-SRC2-3 peptide fluorescence polarization, 2 h; max response, negative = inhibition: stronger effect = lower value.
Outline: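 Measured by FP: displacement of SRC2-3 coactivator peptide from VDR by library compounds, following a two-hour ambient incubation.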
On the % scale 0 is the no-effect control and ±100 the full control effect; potency means the concentration at half of the fitted maximal effect.

Potency, inconclusive:
C/C=C/Cn1c(SCc2ccccc2)nc2c1c(=O)[nH]c(=O)n2C 89.1 µM [inhibitor, single point], COC(=O)C1=C[C@@H](C(=O)OC)[C@@H]2C3=C(C(=O)C2(C)C)[C@H](C)n2c(=O)n(C)c(=O)n2[C@@H]3C1 63.1 µM [inhibitor, partial curve, poor fit], O=C(/C(=C\c1ccccc1)c1nc2ccccc2[nH]1)c1ccc(Cl)cc1 70.8 µM [inhibitor, partial curve], Cc1no[n+]([O-])c1COc1cccc(/C=N/Nc2nncn2N)c1 79.4 µM [inhibitor, partial curve], Cc1ccc(-n2c(-c3ccccc3)nsc2=NC#N)cc1 2.82 µM [inhibitor, full curve, poor fit], O=C(CNC1CCCCCC1)c1cccs1 50.1 µM [inhibitor, partial curve, poor fit], Cc1cc(NC(=O)c2ocnc2C)no1 44.7 µM [inhibitor, partial curve], C/C=C\C=C\C(=O)N1CC2(CC(c3cccc(NC(=O)/C(C)=C\C)c3)=NO2)C[C@H]1C(N)=O (stereo partly specified) 63.1 µM [inhibitor, partial curve, poor fit], CCc1ccc(S(=O)(=O)Nc2cc(SCC(=O)O)c(O)c3ccccc23)cc1 25.1 µM [inhibitor, single point], Cc1ccc2nc(N3C(=O)C(O)=C(C(=O)c4ccc(C)o4)C3c3ccc(O)cc3)sc2c1 (stereo unspecified) 89.1 µM [inhibitor, single point], Cc1cc(-c2nnc(-c3ccccc3)c(-c3ccccc3)n2)c(C)o1 89.1 µM [inhibitor, partial curve, poor fit], O=c1[nH]cc(NCc2ccccc2)c(=O)[nH]1 89.1 µM [inhibitor, single point], O=C1c2oc3ccc(Cl)cc3c(=O)c2C(c2ccccn2)N1CCCN1CCOCC1 (stereo unspecified) 70.8 µM [inhibitor, partial curve, poor fit], Cc1cc(C)nc(N/N=C/c2c(CO)cnc(C)c2O)n1 89.1 µM [inhibitor, single point], O=C(Nc1cccc([N+](=O)[O-])c1)c1cc2ccccc2cc1O 14.1 µM [inhibitor, partial curve], CCOC(=O)C(NC(=O)c1ccc(F)cc1)(Nc1sc2c(c1C(N)=O)CCC2)C(F)(F)F (stereo unspecified) 56.2 µM [inhibitor, partial curve, poor fit], Cn1nccc1/C=C(/C#N)S(=O)(=O)c1ccccc1 22.4 µM [inhibitor, partial curve], COc1ccccc1/C=C1\SC(=S)N(CCC(=O)Nc2ccc(C(=O)O)c(O)c2)C1=O 100 µM [inhibitor, single point], COc1cc(C(=O)OCC(=O)NC(=O)NCc2ccccc2)ccc1OC(F)F 89.1 µM [inhibitor, single point], Cc1cccc(OCCNC(=O)c2ccc(Cl)c(S(=O)(=O)NCc3cccnc3)c2)c1 79.4 µM [inhibitor, partial curve, poor fit], CC1(C)C2CCC1(CS(=O)(=O)NCc1ccc(Cl)cc1Cl)C(=O)C2 (stereo unspecified) 70.8 µM [inhibitor, partial curve]

Potency, active:
CC1(C)CC(=O)C(C(C2=C(O)CC(C)(C)CC2=O)c2ccc(Br)s2)C(=O)C1 (stereo unspecified) 10 µM, COC(=O)C(N)CS (stereo unspecified) 17.8 µM, COc1cc2oc(=O)c3c4c(cc5ccc(c1CCN(C)C)c2c53)OCO4 39.8 µM, Cc1cc(NC(=O)CCCS(=O)(=O)c2nc(-c3cccs3)cc(C(F)(F)F)n2)no1 17.8 µM, CCN1/C(=C/C(=S)Nc2ccccc2)Sc2ccccc21 70.8 µM, O=C(CCS(=O)(=O)c1nc(-c2ccc3c(c2)OCO3)cc(C(F)(F)F)n1)Nc1ccc(Br)cc1 12.6 µM, Nc1cc(-c2ccncc2)c[nH]c1=O 20 µM, COc1ccc(C(=O)n2nnc3ccccc32)cc1OC 50.1 µM, Brc1cc2c(cc1Br)OCCOCCOCCOCCO2 28.2 µM

Max response, negative = inhibition, inactive:
O=C1c2ccccc2N2C(=O)c3ccccc3[C@H]2N1c1ccccc1 20.6%, COc1ccc(C2C3=C(CC(C)(C)CC3=O)N(CC(=O)O)C3=C2C(=O)CC(C)(C)C3)cc1OC 1.16%, Cc1cc(C)n2nc(SCc3ccccc3)nc2n1 2.89%, Nc1ncnc2c1ncn2[C@@H]1O[C@H](CNCC(O)CO)[C@@H](O)[C@H]1O (stereo partly specified) -0.982%, Cc1ccc(S(=O)(=O)N(CC(=O)Nc2ccccc2C(=O)O)c2ccc(Cl)cc2)cc1 -26.5%, CC(=O)Nc1nc(-c2ccc3c(c2)CCO3)cs1 3.62%, COc1ccc(Cl)cc1C(=O)Nc1ccc(NC(=O)C(C)C)cc1 0.118%, CCOc1ccc(C2C(C(=O)Nc3ccccc3C)=C(C)Nc3nnnn32)cc1 (stereo unspecified) -1.18%, CCOC(Cn1ccc(=O)[nH]c1=O)OCC -4.7%, COc1ccc2[nH]cc(CCNc3cc(-c4ccc(C(=O)N(C)C)cc4)ncn3)c2c1 -10.9%, O=C(Nc1cccnc1)c1ccc(Cl)c(S(=O)(=O)N2CCc3ccccc32)c1 -23.2%, Cc1cccnc1NC(=O)CCc1nnc2ccc(NCc3ccco3)nn12 6.86%, CCN(CC)S(=O)(=O)c1ccc(N2CCOCC2)c(NC(=O)c2ccccc2)c1 15%, CC(C)Cn1c(N)c(C(=O)COC(=O)c2ccc3c(c2)OCCO3)c(=O)n(C)c1=O 16.5%, CCOC(=O)c1sc(NC(=O)c2cc3ccccc3o2)nc1C 1.48%, COc1ccccc1NC(=O)Cc1csc(NC(=S)Nc2ccccc2)n1 -20.9%
